In the supplement of paper PMC4604168 (melanoma cell lines):
Some of the results follow. Single values are uncertain, as repeats are few or missing.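 Imaging used 1,536-well plates; nuclei positive for cleaved PARP by antibody were divided by total DNA-stained nuclei to yield the apoptosis fraction. Doses for screening kept most cells viable, and cell lines differ markedly in resting and induced cleaved-PARP levels.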

Test system: COLO792
Experiment: cleaved PARP positive nuclei fraction relative to DMSO control; melanoma cells; higher = more apoptosis
Settings: library dose: low library concentration; 72 h

Row | SMILES | cleaved PARP positive nuclei fraction [%]
1 | COc1ccc2c(c1)CCC1C2CCC2(C)C(NCCCCCCN3C(=O)C=CC3=O)CCC12 (stereo unspecified) + Cc1cc(SCc2sc(-c3ccc(C(F)(F)F)c(F)c3)nc2C)ccc1OCC(=O)O [GW0742] (first compound 0.4 µM, partner dose 2 µM) | 118
2 | Cc1ccc(NC(=O)c2cccc(N(C)C)c2)cc1NC(=O)c1ccc(O)cc1 + C/C(O)=C(\C#N)C(=O)Nc1cc(Br)ccc1Br [LFM-A13] (first compound 2 µM, partner dose 2 µM) | 90.3
3 | O=C(Oc1ccc([N+](=O)[O-])cc1)N1CCC(C(O)(c2ccc3c(c2)OCO3)c2ccc3c(c2)OCO3)CC1 + O=c1cc(-c2cccc3c2Sc2ccccc2S3)oc(N2CCOCC2)c1 [KU55933] (first compound 1 µM, partner dose 1 µM) | 142
4 | C/C(O)=C(\C#N)C(=O)Nc1cc(Br)ccc1Br + O=c1cc(-c2cccc3c2Sc2ccccc2S3)oc(N2CCOCC2)c1 [KU55933] (first compound 2 µM, partner dose 1 µM) | 114
5 | C=CCn1c(=O)c2cnc(Nc3ccc(N4CCN(C)CC4)cc3)nc2n1-c1cccc(C(C)(C)O)n1 + Cc1cc(SCc2sc(-c3ccc(C(F)(F)F)c(F)c3)nc2C)ccc1OCC(=O)O [GW0742] (first compound 0.02 µM, partner dose 2 µM) | 42.6
6 | C[C@]1(c2nc3c(C(N)=O)cccc3[nH]2)CCCN1 [Veliparib] + Cc1cc(SCc2sc(-c3ccc(C(F)(F)F)c(F)c3)nc2C)ccc1OCC(=O)O [GW0742] (first compound 1.4 µM, partner dose 2 µM) | 136
7 | CCN(CC)CCCCNc1ncc2cc(-c3cc(OC)cc(OC)c3)c(NC(=O)NC(C)(C)C)nc2n1 + Cc1cc(SCc2sc(-c3ccc(C(F)(F)F)c(F)c3)nc2C)ccc1OCC(=O)O [GW0742] (first compound 0.1 µM, partner dose 2 µM) | 99.6
8 | O=C(O)c1ccc(-c2c[nH]c3ncc(-c4ccccc4)cc23)cc1C1CCCC1 + Cc1cc(SCc2sc(-c3ccc(C(F)(F)F)c(F)c3)nc2C)ccc1OCC(=O)O [GW0742] (first compound 0.16 µM, partner dose 2 µM) | 108
9 | NC(=O)Nc1cc(-c2cccc(F)c2)sc1C(=O)N[C@H]1CCCNC1 + O=C(Oc1ccc([N+](=O)[O-])cc1)N1CCC(C(O)(c2ccc3c(c2)OCO3)c2ccc3c(c2)OCO3)CC1 [JZL184] (first compound 0.02 µM, partner dose 1 µM) | 40.2
10 | O=C(O)C(=O)Nc1sc2c(c1C(=O)O)CCNC2 + O=C(Oc1ccc([N+](=O)[O-])cc1)N1CCC(C(O)(c2ccc3c(c2)OCO3)c2ccc3c(c2)OCO3)CC1 [JZL184] (first compound 1.66667 µM, partner dose 1 µM) | 119
11 | COc1ccc(-c2ccc3c(N4CCOCC4)nc(N4C[C@@H](C)O[C@@H](C)C4)nc3n2)cc1CO + Cc1cc(SCc2sc(-c3ccc(C(F)(F)F)c(F)c3)nc2C)ccc1OCC(=O)O [GW0742] (first compound 0.02 µM, partner dose 2 µM) | 75.2
12 | O=C(CCCCCCC(=O)Nc1ccccc1)NO [vorinostat] + Cc1cc(SCc2sc(-c3ccc(C(F)(F)F)c(F)c3)nc2C)ccc1OCC(=O)O [GW0742] (first compound 0.08 µM, partner dose 2 µM) | 151
13 | COC(=O)c1sccc1S(=O)(=O)Nc1ccc(Nc2ccccc2)cc1OC + O=C(Oc1ccc([N+](=O)[O-])cc1)N1CCC(C(O)(c2ccc3c(c2)OCO3)c2ccc3c(c2)OCO3)CC1 [JZL184] (first compound 1 µM, partner dose 1 µM) | 42.7
14 | Nc1cccc2c1CN(C1CCC(=O)NC1=O)C2=O (stereo unspecified) [lenalidomide] + O=C(Oc1ccc([N+](=O)[O-])cc1)N1CCC(C(O)(c2ccc3c(c2)OCO3)c2ccc3c(c2)OCO3)CC1 [JZL184] (first compound 1 µM, partner dose 1 µM) | 97
15 | Cn1cncc1[C@@](N)(c1ccc(Cl)cc1)c1ccc2c(c1)c(-c1cccc(Cl)c1)cc(=O)n2C [tipifarnib] + C/C(O)=C(\C#N)C(=O)Nc1cc(Br)ccc1Br [LFM-A13] (first compound 0.01 µM, partner dose 2 µM) | 192
16 | COc1cc(Nc2ncc(F)c(Nc3ccc4c(n3)NC(=O)C(C)(C)O4)n2)cc(OC)c1OC [Tamatinib] + C/C(O)=C(\C#N)C(=O)Nc1cc(Br)ccc1Br [LFM-A13] (first compound 0.4 µM, partner dose 2 µM) | 128

Reprinted at random: 2 records from the list.
Row | SMILES | cleaved PARP positive nuclei fraction [%]
10 | O=C(O)C(=O)Nc1sc2c(c1C(=O)O)CCNC2 + O=C(Oc1ccc([N+](=O)[O-])cc1)N1CCC(C(O)(c2ccc3c(c2)OCO3)c2ccc3c(c2)OCO3)CC1 [JZL184] (first compound 1.66667 µM, partner dose 1 µM) | 119
1 | COc1ccc2c(c1)CCC1C2CCC2(C)C(NCCCCCCN3C(=O)C=CC3=O)CCC12 (stereo unspecified) + Cc1cc(SCc2sc(-c3ccc(C(F)(F)F)c(F)c3)nc2C)ccc1OCC(=O)O [GW0742] (first compound 0.4 µM, partner dose 2 µM) | 118
